Laboratory results published in publication PMC4932512.
Results are given in words; binding and its absence hold for the method and conditions named. In cells and extracts the contact can be indirect. Some results given as binding are weak or reduced against the parent protein; the word gives no strength.

Protein sequences, listed by entry. Tags and fused reporters are not part of them.
UniProt Q00613: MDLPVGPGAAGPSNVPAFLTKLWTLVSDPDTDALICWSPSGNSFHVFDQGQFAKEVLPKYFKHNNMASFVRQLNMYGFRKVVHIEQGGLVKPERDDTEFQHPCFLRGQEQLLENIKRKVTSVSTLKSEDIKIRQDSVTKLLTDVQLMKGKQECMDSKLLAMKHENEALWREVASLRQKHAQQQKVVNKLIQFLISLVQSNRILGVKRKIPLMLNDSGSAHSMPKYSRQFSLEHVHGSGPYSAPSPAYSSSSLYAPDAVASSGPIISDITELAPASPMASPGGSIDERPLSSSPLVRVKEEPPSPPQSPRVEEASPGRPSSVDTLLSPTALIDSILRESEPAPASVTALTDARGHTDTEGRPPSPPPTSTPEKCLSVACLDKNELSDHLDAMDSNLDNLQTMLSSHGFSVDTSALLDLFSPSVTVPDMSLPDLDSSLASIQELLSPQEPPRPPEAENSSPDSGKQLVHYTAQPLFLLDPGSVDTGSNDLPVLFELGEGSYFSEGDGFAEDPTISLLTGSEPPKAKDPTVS
UniProt Q86Y07: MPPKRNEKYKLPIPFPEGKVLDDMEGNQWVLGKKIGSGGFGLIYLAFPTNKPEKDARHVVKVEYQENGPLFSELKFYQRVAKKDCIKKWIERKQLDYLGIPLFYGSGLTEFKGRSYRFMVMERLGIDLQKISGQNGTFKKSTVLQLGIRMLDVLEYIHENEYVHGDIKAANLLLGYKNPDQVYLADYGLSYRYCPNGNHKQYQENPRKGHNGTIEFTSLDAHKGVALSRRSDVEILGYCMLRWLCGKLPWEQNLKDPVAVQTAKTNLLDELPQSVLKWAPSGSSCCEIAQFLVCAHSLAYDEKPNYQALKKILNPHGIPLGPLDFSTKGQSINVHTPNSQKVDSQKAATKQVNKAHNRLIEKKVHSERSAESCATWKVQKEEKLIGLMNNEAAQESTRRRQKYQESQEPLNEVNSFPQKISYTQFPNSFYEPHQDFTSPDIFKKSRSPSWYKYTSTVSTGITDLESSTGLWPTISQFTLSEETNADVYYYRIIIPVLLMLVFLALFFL
UniProt P49841: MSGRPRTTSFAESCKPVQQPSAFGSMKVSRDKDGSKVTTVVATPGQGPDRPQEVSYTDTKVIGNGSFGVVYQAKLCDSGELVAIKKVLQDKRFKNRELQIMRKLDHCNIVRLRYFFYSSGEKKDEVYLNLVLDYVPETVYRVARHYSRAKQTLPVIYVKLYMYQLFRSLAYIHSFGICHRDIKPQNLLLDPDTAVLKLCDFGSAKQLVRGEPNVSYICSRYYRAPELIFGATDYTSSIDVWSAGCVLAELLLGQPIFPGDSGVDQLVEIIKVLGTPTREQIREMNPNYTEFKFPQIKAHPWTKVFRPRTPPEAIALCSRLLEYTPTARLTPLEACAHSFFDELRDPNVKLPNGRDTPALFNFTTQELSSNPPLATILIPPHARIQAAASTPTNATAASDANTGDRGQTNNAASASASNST

What was measured:
HSF1 = HSF1 (UniProt Q00613); test: co-IP; co-immunoprecipitation of GSK3β and HSF1 with or without VRK2 overexpression (Supplementary Fig. S5a)
[1] = target: Flag-tagged human VRK2 (Vaccinia-related kinase 2), wild type (human) (UniProt Q86Y07); test: co-IP; HEK293T cells transfected with Flag-Mock or Flag-VRK2 and HA-GSK3β; 24 h after transfection whole cell lysates immunoprecipitated with anti-FLAG antibody, immunoblot with anti-HA

| binding (HSF1) | binding [1] | Substance |
| --- | --- | --- |
| binds |  | GSK3β as used in the co-immunoprecipitation with HSF1 (from UniProt P49841 1-420) (enzyme) |
|  | binds | HA-tagged GSK3β (glycogen synthase kinase 3β), wild type (from UniProt P49841 1-420) (enzyme) |
